# In the supplement of paper PMC8728848:
# The other results are listed elsewhere or left out.
# B1: Epa21 (Candida glabrata) (protein)
# chain: MGSSHHHHHHSSGLVPRGSHMASTPNIESHPQGCSPVDTSGIKPGLKMDLYRFPITPPGTGCWSWDWLTVTPDFPRSGYWKWPKIAEVDGVVGPLHLDSGHPTCDPLTSVLPHGFNYLQSITTTNFTMVLHGYFVPKQSGKYTFEFKADDALLLNLGAGNAFSCCDYNNSQYNQGEYLAYAIWSKNNQTATLYLEKGIYYPIRVFYHNRCCGAYMDVVYYFNDSPIPNRDFSGLLFSIPDSDSCDANI
# Experiments:
# Assay in all cases: glycan array binding signal (z-score within array); higher = stronger binding
# Conditions in all cases: glycan notation: IUPAC condensed, linker removed
# [1] = target: Gal(b1-4)GlcNAc(b1-2)Man(a1-3)[Gal(b1-4)GlcNAc(b1-2)Man(a1-6)]Man(b1-4)GlcNAc(b1-4)GlcNAc
# Outline: (§1)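 The binding signal is a Z-score computed within each array and averaged over linkers. Arrays of the same protein sequence at different concentrations or buffers were also averaged together. Data originate from 3228 arrays in the Consortium for Functional Glycomics database, kept only where the protein sequence was available.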
# [2] = target: Gal(b1-4)GlcNAc(b1-2)Man(a1-3)[Gal(b1-4)GlcNAc(b1-2)Man(a1-6)]Man(b1-4)GlcNAc(b1-4)[Fuc(a1-6)]GlcNAc
# Outline: as §1
# [3] = target: Gal(b1-4)GlcNAc(b1-2)Man(a1-3)[Gal(b1-4)GlcNAc(b1-2)Man(a1-6)][Gal(b1-4)GlcNAc(b1-4)]Man(b1-4)GlcNAc(b1-4)[Fuc(a1-6)]GlcNAc
# Outline: as §1
# [4] = target: Gal(b1-4)GlcNAc(b1-2)Man(a1-3)[Gal(b1-4)GlcNAc(b1-2)Man(a1-6)][GlcNAc(b1-4)]Man(b1-4)GlcNAc(b1-4)[Fuc(a1-6)]GlcNAc
# Outline: as §1
# [5] = target: Gal(b1-4)GlcNAc(b1-2)Man(a1-3)[GlcNAc(b1-2)Man(a1-6)]Man(b1-4)GlcNAc(b1-4)GlcNAc
# Outline: as §1
# [6] = target: Gal(b1-4)GlcNAc(b1-2)Man(a1-3)[GlcNAc(b1-4)][Gal(b1-4)GlcNAc(b1-2)Man(a1-6)]Man(b1-4)GlcNAc(b1-4)GlcNAc
# Outline: as §1
# [7] = target: Gal(b1-4)GlcNAc(b1-2)Man(a1-3)[Man(a1-6)]Man(b1-4)GlcNAc(b1-4)GlcNAc
# Outline: as §1
# [8] = target: Gal(b1-4)GlcNAc(b1-2)Man(a1-6)Man(b1-4)GlcNAc(b1-4)GlcNAc
# Outline: as §1
# [9] = target: Gal(b1-4)GlcNAc(b1-2)Man(a1-6)[GlcNAc(b1-2)Man(a1-3)]Man(b1-4)GlcNAc(b1-4)GlcNAc
# Outline: as §1
# [10] = target: Gal(b1-4)GlcNAc(b1-2)Man(a1-6)[Man(a1-3)]Man(b1-4)GlcNAc(b1-4)GlcNAc
# Outline: as §1
# [11] = target: Gal(b1-4)GlcNAc(b1-2)[Gal(b1-4)GlcNAc(b1-4)]Man(a1-3)[Gal(b1-4)GlcNAc(b1-2)Man(a1-6)]Man(b1-4)GlcNAc(b1-4)GlcNAc
# Outline: as §1
# [12] = target: Gal(b1-4)GlcNAc(b1-2)[Gal(b1-4)GlcNAc(b1-4)]Man(a1-3)[Gal(b1-4)GlcNAc(b1-2)[Gal(b1-4)GlcNAc(b1-6)]Man(a1-6)]Man(b1-4)GlcNAc(b1-4)GlcNAc
# Outline: as §1
# [13] = target: Gal(b1-4)GlcNAc(b1-2)[Gal(b1-4)GlcNAc(b1-4)]Man(a1-3)[GlcNAc(b1-4)][Gal(b1-4)GlcNAc(b1-2)Man(a1-6)]Man(b1-4)GlcNAc(b1-4)GlcNAc
# Outline: as §1
# [14] = target: Gal(b1-4)GlcNAc(b1-2)[Gal(b1-4)GlcNAc(b1-4)]Man(a1-3)[GlcNAc(b1-4)][Gal(b1-4)GlcNAc(b1-2)[Gal(b1-4)GlcNAc(b1-6)]Man(a1-6)]Man(b1-4)GlcNAc(b1-4)GlcNAc
# Outline: as §1
# [15] = target: Gal(b1-4)GlcNAc(b1-2)[Gal(b1-4)GlcNAc(b1-6)]Man(a1-6)[Gal(b1-4)GlcNAc(b1-2)Man(a1-3)]Man(b1-4)GlcNAc(b1-4)GlcNAc
# Outline: as §1
# [16] = target: Gal(b1-4)GlcNAc(b1-2)[Gal(b1-4)GlcNAc(b1-6)]Man(a1-6)[Gal(b1-4)GlcNAc(b1-2)Man(a1-3)]Man(b1-4)GlcNAc(b1-4)[Fuc(a1-6)]GlcNAc
# Outline: as §1
# [17] = target: Gal(b1-4)GlcNAc(b1-2)[Gal(b1-4)GlcNAc(b1-6)]Man(a1-6)[GlcNAc(b1-4)][Gal(b1-4)GlcNAc(b1-2)Man(a1-3)]Man(b1-4)GlcNAc(b1-4)GlcNAc
# Outline: as §1
# [18] = target: Gal(b1-4)GlcNAc(b1-2)[Gal(b1-4)GlcNAc(b1-6)]Man(a1-6)[GlcNAc(b1-4)][Gal(b1-4)GlcNAc(b1-2)[Gal(b1-4)GlcNAc(b1-4)]Man(a1-3)]Man(b1-4)GlcNAc(b1-4)[Fuc(a1-6)]GlcNAc
# Outline: as §1
# [19] = target: Gal(b1-4)GlcNAc(b1-3)Gal(b1-3)GalNAc
# Outline: as §1
binder,measurement,setting,value
B1,glycan array binding signal (z-score),[1],-0.39
same,glycan array binding signal (z-score),[2],0.108
same,glycan array binding signal (z-score),[3],-0.562
same,glycan array binding signal (z-score),[4],-0.687
same,glycan array binding signal (z-score),[5],-0.699
same,glycan array binding signal (z-score),[6],-0.598
same,glycan array binding signal (z-score),[7],0.362
same,glycan array binding signal (z-score),[8],-0.267
same,glycan array binding signal (z-score),[9],-0.516
same,glycan array binding signal (z-score),[10],-0.334
same,glycan array binding signal (z-score),[11],-0.354
same,glycan array binding signal (z-score),[12],-0.734
same,glycan array binding signal (z-score),[13],-0.441
same,glycan array binding signal (z-score),[14],-0.549
same,glycan array binding signal (z-score),[15],-0.692
same,glycan array binding signal (z-score),[16],-0.604
same,glycan array binding signal (z-score),[17],-0.708
same,glycan array binding signal (z-score),[18],-0.791
same,glycan array binding signal (z-score),[19],-0.109

# Rewritten with tabs: entries from further up.
binder	measurement	setting	value
B1	glycan array binding signal (z-score)	[3]	-0.562
same	glycan array binding signal (z-score)	[13]	-0.441
